In PubChem BioAssay AID504847 (National Center for Advancing Translational Sciences (NCATS), 2011):
About 3,700 (0.93%) of roughly 400,000 compounds were called active. Inconclusive means that the source gave no clear call. Such entries were picked first, then a sample of the others. Calls follow the shape of the dose curve; as a rule, active = well fitted inhibition curve with a large enough effect; inconclusive = small, poorly fitted or top-dose-only effect, or another doubt; inactive = no such curve, though single readings can be large or run the other way. Potencies of inconclusive entries are doubtful fits and often do not repeat.

Amino acid sequences for entries named in this document (tags omitted). A change or cut given only in a name is not applied to a line headed by its entry.
UniProt P11473: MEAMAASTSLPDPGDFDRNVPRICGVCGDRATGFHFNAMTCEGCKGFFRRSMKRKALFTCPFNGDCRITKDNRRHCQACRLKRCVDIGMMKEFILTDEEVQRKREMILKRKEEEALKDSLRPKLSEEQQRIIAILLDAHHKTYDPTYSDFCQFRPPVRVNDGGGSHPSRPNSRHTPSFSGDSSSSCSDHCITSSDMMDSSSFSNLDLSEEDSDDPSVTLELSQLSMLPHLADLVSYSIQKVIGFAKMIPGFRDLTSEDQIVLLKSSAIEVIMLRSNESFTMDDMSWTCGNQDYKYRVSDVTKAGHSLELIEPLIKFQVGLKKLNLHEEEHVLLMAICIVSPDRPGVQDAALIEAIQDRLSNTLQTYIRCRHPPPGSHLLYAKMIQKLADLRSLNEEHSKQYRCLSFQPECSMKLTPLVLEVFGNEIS

Target: Vitamin D3 receptor (Homo sapiens) (UniProt P11473)
Assay: Inhibitors of the vitamin D receptor (VDR): qHTS
Conditions: VDR-SRC2-3 peptide fluorescence polarization, 2 h; max response, negative = inhibition: hits give low values
Outline: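 FP read-out; VDR + SRC2-3 coactivator peptide; 23 nl compound by pintool; 2 h RT incubation; reagents held at 4 deg C, protected from light.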
% is scaled to controls: 0 for no effect and ±100 for the full control effect; potency is read from the fitted curve at half-maximal effect.

Row | SMILES | max response, negative = inhibition | Potency
1 | O=C(NCc1ccccc1F)c1ccc(CN2CC(=O)N3CCCCC3C2=O)cc1 (stereo not drawn) | inactive: 8.74% | –
2 | CC(=O)Nc1ccc(-c2nc3ccc(NC(C)=O)cc3o2)cc1 | inactive: 11.6% | –
3 | Cc1ccc(/C=C/c2ccc(N(C)C)cc2)[n+](C)c1 | inactive: -14.8% | –
4 | CC(C(=O)NN)n1nnc(N2CCOCC2)n1 (stereo not drawn) | inactive: -6.59% | –
5 | N#C/C(=C\c1ccc(Cl)cc1)c1nc(-c2cc3ccccc3oc2=O)cs1 | inactive: -5.87% | –
6 | CC(=O)c1ccc(C(=O)N2CCc3c([nH]c4ccccc34)C2c2ccccn2)s1 (stereo not drawn) | inactive: -5.29% | –
7 | Nc1nc2c(s1)CCc1ccccc1-2 | – | inconclusive: 0.631 µM [inhibitor, full curve, poor fit]
8 | CN(C)c1cccc(C(=O)OCCCC(=O)c2ccc(F)cc2)c1 | – | inconclusive: 56.2 µM [inhibitor, single point]
9 | COc1cc(CNc2ccc(N3CCCC3)cc2)ccc1OCc1ccccc1 | – | active: 35.5 µM
10 | CN(C)S(=O)(=O)c1cccc(C(=O)Nc2ccccc2C(=O)NC2CC2)c1 | – | inconclusive: 12.6 µM [inhibitor, partial curve, poor fit]
11 | COC(=O)c1cc(=O)nc2sc3cc(OC)ccc3n12 | inactive: 17.8% | –
12 | CC(C)C(=O)NS(=O)(=O)c1ccc(NS(C)(=O)=O)cc1 | – | inconclusive: 79.4 µM [inhibitor, single point]
13 | Nc1nc(CN2CCOCC2)cs1 | – | inconclusive: 25.1 µM [inhibitor, single point]
14 | Cc1nn(-c2ccccc2)c(Cl)c1CN(C(=O)CCl)c1ccc(Cl)cc1 | – | inconclusive: 56.2 µM [inhibitor, partial curve, poor fit]
15 | Cc1[nH]c2ccccc2c1C(c1ccccn1)N1CCC(C(N)=O)CC1 (stereo not drawn) | – | inconclusive: 70.8 µM [inhibitor, partial curve]
16 | Cc1ccc(NC(=S)NCc2ccccc2)cc1C | inactive: -22.3% | –
17 | Cc1ccc(Cn2ccc(NC(=O)c3cc(CC(C)C)on3)n2)cc1 | – | inconclusive: 79.4 µM [inhibitor, partial curve, poor fit]
18 | CCCCOc1ccc(C(=O)NCC(=O)NCC(c2ccco2)N2CCCCC2)cc1 (stereo not drawn) | – | inconclusive: 89.1 µM [inhibitor, single point]
19 | O=C(CC1C(=O)NCCN1Cc1ccc(-c2ccccc2)cc1)NC1CCC1 (stereo not drawn) | – | inconclusive: 10 µM [inhibitor, partial curve, poor fit]
20 | COc1ccc(CCNC(=O)CS(=O)Cc2nc(-c3ccccc3Cl)oc2C)cc1OC (stereo not drawn) | inactive: -12.9% | –
21 | COc1ccccc1C(=O)CSc1n[nH]c(N)n1 | inactive: -9.15% | –
22 | COc1ccc(/C=C/C(=O)Nc2c(C(=O)O)[nH]c3ccccc23)cc1OC | – | inconclusive: 20 µM [inhibitor, partial curve, poor fit]

Some values from the results shown:
Value for O=C(NCc1ccccc1F)c1ccc(CN2CC(=O)N3CCCCC3C2=O)cc1 (stereo not drawn) under max response, negative = inhibition: inactive: 8.74%
Value for CCCCOc1ccc(C(=O)NCC(=O)NCC(c2ccco2)N2CCCCC2)cc1 (stereo not drawn) under Potency: inconclusive: 89.1 µM [inhibitor, single point]
Value for Cc1ccc(/C=C/c2ccc(N(C)C)cc2)[n+](C)c1 under max response, negative = inhibition: inactive: -14.8%

Further entries follow:

Row | SMILES | max response, negative = inhibition | Potency
23 | Cn1c(NNC(=O)CCC2CCCCC2)cc(=O)n(C)c1=O | – | inconclusive: 5.01 µM [inhibitor, full curve, poor fit]
24 | COC(=O)c1ccc(OC(=O)C2CC(=O)N(c3cccc(C)c3)C2)cc1 (stereo not drawn) | – | inconclusive: 79.4 µM [inhibitor, partial curve, poor fit]
25 | Oc1ccc(Cl)cc1C1C=C(c2ccc3c(c2)OCO3)NC(c2ccc(F)c(Br)c2)N1 (stereo not drawn) | – | inconclusive: 39.8 µM [inhibitor, partial curve]
26 | C/C(=N/NS(=O)(=O)c1cccc([N+](=O)[O-])c1)c1ccncc1 | – | active: 28.2 µM
27 | O=C(c1ccco1)N1N=C(c2ccco2)CC1c1ccc(Cl)cc1Cl (stereo not drawn) | – | inconclusive: 89.1 µM [inhibitor, single point]
28 | Cc1ccc(C2=NN3C(C2)c2ccccc2OC32C(=O)Nc3ccccc32)cc1 (stereo not drawn) | – | inconclusive: 89.1 µM [inhibitor, single point]
29 | CCOC(=O)c1ccc(-n2c(CN3CCC(C(N)=O)CC3)nc3ccc([N+](=O)[O-])cc3c2=O)cc1 | – | inconclusive: 15.8 µM [inhibitor, partial curve, poor fit]
30 | CCCCc1ccc(/C=C2/C(=O)ON=C2c2ccccc2)s1 | – | inconclusive: 79.4 µM [inhibitor, partial curve]
31 | O=c1c(Br)c(N2CCCC2)cnn1-c1ccccc1 | – | inconclusive: 89.1 µM [inhibitor, partial curve, poor fit]
32 | Cc1cccc(C)c1OCCN1CCCC1 | inactive: 9.07% | –
33 | CCOC(=O)c1cnc2cc(Cl)c(OC)cc2c1NCC1CCCO1 (stereo not drawn) | inactive: -0.917% | –
34 | CC(=O)Nc1ccccc1NC(=O)c1cccc2ccccc12 | – | inconclusive: 79.4 µM [inhibitor, partial curve]
35 | CCCCCC(=O)NC(Cc1ccc(OC)c([N+](=O)[O-])c1)C(=O)O (stereo not drawn) | – | inconclusive: 31.6 µM [inhibitor, partial curve, poor fit]
36 | COc1cc(/C=C2\SC(c3ccc(C)cc3)=NC2=O)cc(OC)c1OC | – | inconclusive: 56.2 µM [inhibitor, partial curve, poor fit]
37 | Nn1cnnc1N/N=C/c1ccc(Cl)c([N+](=O)[O-])c1 | – | inconclusive: 39.8 µM [inhibitor, single point]
38 | COC(=O)C1=C(C)N(Cc2ccc(C)cc2)C(=O)/C1=C\c1ccc(O)c(OC)c1 | – | inconclusive: 50.1 µM [inhibitor, partial curve, poor fit]
39 | Cc1nc2ccc(C(=O)Nc3ccc(N(C)C)cc3)cc2s1 | – | inconclusive: 79.4 µM [inhibitor, single point]
40 | C=CCN(c1ccccc1OC)S(=O)(=O)c1cccc(C(=O)OCC(=O)N2CCOCC2)c1 | – | inconclusive: 100 µM [inhibitor, single point]
41 | OC1(c2ccc3c(c2)OCO3)CCN(Cc2ccccn2)CC1 | – | inconclusive: 100 µM [inhibitor, partial curve, poor fit]
42 | N#CC1=C2SCN(Cc3ccccc3)CN2C(=O)CC1c1cccs1 (stereo not drawn) | – | inconclusive: 50.1 µM [inhibitor, partial curve, poor fit]
43 | Cn1c(SCC(=O)N2c3ccccc3Sc3ccccc32)nnc1-c1ccco1 | inactive: 22.5% | –
